These are yes or no findings as the source states them, for the method shown. In cells and extracts the contact can be indirect. A yes stands for co-enrichment or nearness to the bait. Other partners may have been found. Sequences can lack the tags named with a protein.

The assay has as its target T1, His6-tagged Fra expressed in B. subtilis 168 AM09 (Bacillus subtilis 168) (UniProt Q797E6).
T1 sequence: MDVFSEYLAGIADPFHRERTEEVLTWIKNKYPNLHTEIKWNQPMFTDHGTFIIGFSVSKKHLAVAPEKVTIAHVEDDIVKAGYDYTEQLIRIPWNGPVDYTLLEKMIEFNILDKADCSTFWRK
Briefly: affinity purification with mass spectrometry; crude extract of B. subtilis AM09 (His6-Fra) on a Ni2+-NTA spin column; washed with 20 mM imidazole, eluted with 500 mM imidazole; SDS-PAGE bands identified by peptide mass fingerprinting; WT extract as control.

B1: ferrochelatase HemH, endogenous in B. subtilis 168 AM09 (enzyme, UniProt P32396 1-310)
chain: MSRKKMGLLVMAYGTPYKEEDIERYYTHIRRGRKPEPEMLQDLKDRYEAIGGISPLAQITEQQAHNLEQHLNEIQDEITFKAYIGLKHIEPFIEDAVAEMHKDGITEAVSIVLAPHFSTFSVQSYNKRAKEEAEKLGGLTITSVESWYDEPKFVTYWVDRVKETYASMPEDERENAMLIVSAHSLPEKIKEFGDPYPDQLHESAKLIAEGAGVSEYAVGWQSEGNTPDPWLGPDVQDLTRDLFEQKGYQAFVYVPVGFVADHLEVLYDNDYECKVVTDDIGASYYRPEMPNAKPEFIDALATVVLKKLGR
B1: the binding result is “binds”.
